Measurements taken from the antibiotic and cytotoxicity screens of Wong et al. (2023).
For part of these data: The hits were mostly taken out for another list; the other results follow. The entries are a selection whose mix differs from that of the whole data set.

Tests used:
[1] = tested on: HSkMC (human skeletal muscle cells); assay: cytotoxicity call (relative viability < 0.9); conditions: 10 µM
[2] = tested on: HepG2; assay: cytotoxicity call (relative viability < 0.9); conditions: 10 µM
[3] = tested on: S. aureus RN4220; assay: growth inhibition call (relative growth <= 0.2); conditions: 50 µM

SMILES | cytotoxicity call [1] | cytotoxicity call [2] | growth inhibition call [3]
CN1CCN(CCCN2c3ccccc3Sc3ccc(Cl)cc32)CC1.O=S(=O)(O)CCS(=O)(=O)O | inactive | active | inactive
C[C@@H]1C[C@H](N)C[C@H](c2ccncc2NC(=O)c2ccc(F)c(-c3c(F)cccc3F)n2)C1 | inactive | inactive | inactive
CCC(C)C(C(=O)OCC[N+](C)(CC)CC)c1ccccc1.[Br-] (stereo not given) | inactive | inactive | inactive
Br.CN1C2CCC1CC(OC(=O)C(O)c1ccccc1)C2 (stereo not given) | inactive | inactive | inactive
CCOc1cc(NC(C)=O)ccc1C(=O)OC | inactive | inactive | inactive
